This is one part of the list. The data scatter; read single values as rough.

Amino acid sequences for entries named in this document (tags omitted). A change or cut given only in a name is not applied to a line headed by its entry.
UniProt Q13045: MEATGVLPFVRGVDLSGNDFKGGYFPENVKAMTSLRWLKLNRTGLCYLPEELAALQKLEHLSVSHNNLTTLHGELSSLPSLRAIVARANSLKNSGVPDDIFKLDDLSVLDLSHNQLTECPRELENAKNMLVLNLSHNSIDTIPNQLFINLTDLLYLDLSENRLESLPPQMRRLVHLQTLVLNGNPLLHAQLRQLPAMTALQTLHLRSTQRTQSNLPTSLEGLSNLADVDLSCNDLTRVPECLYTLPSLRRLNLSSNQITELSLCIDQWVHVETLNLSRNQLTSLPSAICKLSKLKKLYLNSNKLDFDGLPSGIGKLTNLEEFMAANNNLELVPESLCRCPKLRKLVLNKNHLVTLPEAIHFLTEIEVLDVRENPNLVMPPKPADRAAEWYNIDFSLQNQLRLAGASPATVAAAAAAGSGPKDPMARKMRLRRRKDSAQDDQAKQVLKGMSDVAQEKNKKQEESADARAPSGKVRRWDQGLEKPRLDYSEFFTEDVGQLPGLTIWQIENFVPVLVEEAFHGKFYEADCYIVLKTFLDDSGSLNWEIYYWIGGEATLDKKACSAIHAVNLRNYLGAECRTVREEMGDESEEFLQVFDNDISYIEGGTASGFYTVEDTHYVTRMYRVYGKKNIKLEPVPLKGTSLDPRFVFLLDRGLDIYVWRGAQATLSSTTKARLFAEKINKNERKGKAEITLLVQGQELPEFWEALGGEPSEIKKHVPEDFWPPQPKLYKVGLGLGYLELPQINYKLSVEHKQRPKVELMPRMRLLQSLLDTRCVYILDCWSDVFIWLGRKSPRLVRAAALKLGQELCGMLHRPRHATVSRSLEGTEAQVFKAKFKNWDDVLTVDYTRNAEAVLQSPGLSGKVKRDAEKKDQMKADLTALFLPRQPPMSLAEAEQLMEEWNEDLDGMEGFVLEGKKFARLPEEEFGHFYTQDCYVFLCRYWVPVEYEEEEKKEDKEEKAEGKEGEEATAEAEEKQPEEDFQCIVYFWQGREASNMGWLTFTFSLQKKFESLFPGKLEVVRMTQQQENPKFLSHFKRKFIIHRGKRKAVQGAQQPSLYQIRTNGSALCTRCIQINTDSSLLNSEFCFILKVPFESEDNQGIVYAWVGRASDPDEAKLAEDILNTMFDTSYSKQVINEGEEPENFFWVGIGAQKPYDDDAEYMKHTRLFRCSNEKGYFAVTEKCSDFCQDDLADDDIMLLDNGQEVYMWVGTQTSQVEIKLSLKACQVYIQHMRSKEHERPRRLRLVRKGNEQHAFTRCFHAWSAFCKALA

The values that follow come from the supplement of paper PMC11732987, “Enantioselective OTUD7B fragment discovery through chemoproteomics screening and high-throughput optimisation” (Communications Chemistry, 2025).

One assay has as its target T1, FLII C232 (UniProt Q13045).
T1 sequence (whole entry): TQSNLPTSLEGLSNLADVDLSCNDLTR
Briefly: log2 mean competition ratio of IA-DTB cysteine labelling (DMSO/compound) (log2 ratio); higher = stronger cysteine engagement by compound. The following applies: 50 µM; treatment time: 4 h; cell line lysate: HEK293T. As to the method: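 IA-DTB competitive cysteine chemoproteomics in HEK293T RIPA lysate. Lysates were treated with compound 29 or 30 at 50 or 200 µM for 4 h, then IA-DTB (500 µM, 1 h), trypsin-digested, NeutrAvidin-enriched and analysed by diaPASEF. Competition ratio = intensity DMSO / intensity compound (n=4 treated, n=64 DMSO); binding: mean log2 CR ≥ 1 and p ≤ 0.05 plus QC filters. Target is the cysteine site.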
As for `O=C(CCl)N[C@H]1CCCc2ccccc21`, the “log2 mean competition ratio” value was -0.296.

On to `O=C(CCl)N[C@@H]1CCCc2ccccc21`, for which the “log2 mean competition ratio” value is 0.511.

The same assay, now with this note: 200 µM; treatment time: 4 h; cell line lysate: HEK293T.
As for `O=C(CCl)N[C@H]1CCCc2ccccc21`, the “log2 mean competition ratio” value was -0.145.

For `O=C(CCl)N[C@@H]1CCCc2ccccc21`, the “log2 mean competition ratio” value is 0.235.
